Measured values as given in publication doi:10.1101/2025.08.07.669170.
Results are given in words; binding and its absence hold for the method and conditions named. Binding seen in cells or lysates may run through a third protein. A yes stands for co-enrichment or nearness to the bait. Other partners may have been found.

Chains of the proteins cited; added tags and fusions are not shown.
UniProt Q9UN81: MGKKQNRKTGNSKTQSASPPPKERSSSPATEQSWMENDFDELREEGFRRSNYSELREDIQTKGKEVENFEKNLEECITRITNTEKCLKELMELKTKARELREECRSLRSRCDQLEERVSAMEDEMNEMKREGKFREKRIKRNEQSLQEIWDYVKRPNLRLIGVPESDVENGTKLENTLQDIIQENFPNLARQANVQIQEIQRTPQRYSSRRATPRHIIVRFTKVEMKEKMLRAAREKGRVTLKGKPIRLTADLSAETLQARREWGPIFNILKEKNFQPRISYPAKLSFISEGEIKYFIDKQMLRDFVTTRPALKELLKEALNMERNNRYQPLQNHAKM
UniProt Q9UHA4: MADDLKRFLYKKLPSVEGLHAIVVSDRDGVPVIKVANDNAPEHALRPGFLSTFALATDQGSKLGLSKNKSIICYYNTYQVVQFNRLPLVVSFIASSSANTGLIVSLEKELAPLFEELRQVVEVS
UniProt Q99496: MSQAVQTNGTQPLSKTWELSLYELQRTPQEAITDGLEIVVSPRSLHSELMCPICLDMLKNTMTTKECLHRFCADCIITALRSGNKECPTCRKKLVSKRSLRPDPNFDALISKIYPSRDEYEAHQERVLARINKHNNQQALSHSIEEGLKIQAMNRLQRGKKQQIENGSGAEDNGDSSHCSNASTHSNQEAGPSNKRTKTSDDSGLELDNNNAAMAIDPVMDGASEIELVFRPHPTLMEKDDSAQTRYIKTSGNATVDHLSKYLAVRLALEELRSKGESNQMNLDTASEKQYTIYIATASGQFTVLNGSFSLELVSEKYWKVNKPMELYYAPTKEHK

B1: AKAP17A (protein, UniProt Q02040 1-695)
chain: MAAATIVHDTSEAVELCPAYGLYLKPITKMTISVALPQLKQPGKSISNWEVMERLKGMVQNHQFSTLRISKSTMDFIRFEGEVENKSLVKSFLACLDGKTIKLSGFSDILKVRAAEFKIDFPTRHDWDSFFRDAKDMNETLPGERPDTIHLEGLPCKWFALKESGSEKPSEDVLVKVFEKFGEIRNVDIPMLDPYREEMTGRNFHTFSFGGHLNFEAYVQYREYMGFIQAMSALRGMKLMYKGEDGKAVACNIKVSFDSTKHLSDASIKKRQLERQKLQELEQQREEQKRREKEAEERQRAEERKQKELEELERERKREEKLRKREQKQRDRELRRNQKKLEKLQAEEQKQLQEKIKLEERKLLLAQRNLQSIRLIAELLSRAKAVKLREQEQKEEKLRLQQQEERRRLQEAELRRVEEEKERALGLQRKERELRERLLSILLSKKPDDSHTHDELGVAHADLLQPVLDILQTVSSGCVSATTLHPLGGQPPAGAPKESPAHPEADGAPKSVNGSVAEEAPCKEVQSSCRVVPEDGSPEKRCPGGVLSCIPDNNQQPKGIPACEQNVSRKDTRSEQDKCNREPSKGRGRATGDGLADRHKRERSRARRASSREDGRPRKERRPHKKHAYKDDSPRRRSTSPDHTRSRRSHSKDRHRRERSRERRGSASRKHSRHRRRSERSRSRSPSRHRSTWNR

Each molecule was assayed against LINE-1 ORF1p (human (endogenous in N2102Ep)) (UniProt Q9UN81) (assay: affinity purification with mass spectrometry).

binding, binds:
LAMOR 3 (from UniProt Q9UHA4 1-124)
RNF2 (from UniProt Q99496 1-336)
B1
